The target of the test is FtsZ-T25 fusion protein (bacterial two-hybrid) (E. coli) (UniProt P0A9A6). The experiment in a line: two-hybrid.

Sequences of proteins named here, by UniProt entry; tags and fusion partners are left off. A change or cut given only in a name is not applied to a line headed by its entry.
UniProt P0A9A6: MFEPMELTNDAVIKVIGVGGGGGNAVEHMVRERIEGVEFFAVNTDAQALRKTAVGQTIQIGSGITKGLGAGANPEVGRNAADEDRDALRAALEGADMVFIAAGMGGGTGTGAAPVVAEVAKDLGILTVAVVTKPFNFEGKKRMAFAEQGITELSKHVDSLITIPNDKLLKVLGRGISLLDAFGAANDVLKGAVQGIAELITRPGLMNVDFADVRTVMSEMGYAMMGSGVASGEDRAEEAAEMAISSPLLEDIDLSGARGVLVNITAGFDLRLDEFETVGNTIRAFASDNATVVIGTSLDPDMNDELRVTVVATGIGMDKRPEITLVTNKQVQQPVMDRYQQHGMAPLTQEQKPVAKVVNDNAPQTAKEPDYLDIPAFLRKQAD

These are yes or no findings as the source states them, for the method shown. Binding calls can cover weak binding; strength is not graded here. Where a sequence is shown, tags or fusion partners need not be part of it.

B1: ZapA (bacterial two-hybrid fusion) (protein, UniProt P0ADS2 1-109)
chain: MSAQPVDIQIFGRSLRVNCPPDQRDALNQAADDLNQRLQDLKERTRVTNTEQLVFIAALNISYELAQEKAKTRDYAASMEQRIRMLQQTIEQALLEQGRITEKTNQNFE
In the case of B1, the binding entry was “binds”.

These data come from publication doi:10.1101/2025.05.07.652675.
